Experimental data reported in the supplement of paper PMC12889115.
Some of the results follow. Values are raw readings; no control value is given beside them.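 In the initial screen, polymyxin B was used at a concentration that permeabilizes Salmonella's outer membrane but not its inner membrane. Maximum growth was set by DMSO wells with or without polymyxin B. Since plates varied, data were ranked per plate, and compounds giving the lowest OD600 advanced as hits.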

Test system: Salmonella enterica serovar Typhimurium SL1344
Assay: bacterial growth OD600 after 18 h with compound and polymyxin B; higher = more bacterial growth (less inhibition)
Conditions: 50 µM, Mueller-Hinton broth

Compound | bacterial growth OD600 (polymyxin B 1 µg/mL) | bacterial growth OD600 (polymyxin B 0.75 µg/mL)
O=C(CCC1CCN(CCCn2cccn2)CC1)N1CCN(c2ccccc2)CC1 | 0.942 | 
CC(C)(CO)NC(=O)CC(c1ccccc1)c1cccc(Cl)c1 (stereo unspecified) |  | 0.452
CC(C)N(C)C(=O)C1CCCN(C2CCN(c3nc4ccccc4o3)CC2)C1 (stereo unspecified) |  | 0.884
C=C(C)CNCC1(O)CCCN(Cc2ccc(F)c(F)c2)C1=O (stereo unspecified) | 1.1 | 
CCOC(c1ccccc1)c1ccc2c(c1)CN(C1CCC1)CCO2 (stereo unspecified) |  | 0.718
Cc1cccc(-c2ccc(NC(=O)C3CCN(Cc4nccn4C)CC3)cc2)c1 |  | 0.587
O=C(Nc1cccc(-n2cccn2)c1)C1CCCN1C(=O)C1CC1 (stereo unspecified) | 0.941 | 
C=CCNC(=O)C1CCCN(c2nc(-c3ccccc3)nc3c2CCC3)C1 (stereo unspecified) |  | 0.575
CCOC(=O)C1(CCOC)CCCN(Cc2c(C)cc(C)cc2-n2cccn2)C1 (stereo unspecified) |  | 0.837
Cc1cc(CN(C)C(=O)C2(N3CCCCC3)Cc3ccccc3C2)n[nH]1 |  | 0.004
Cc1ccccc1C1(CC(=O)N2CCN(C(C)C)CC2)CC(=O)N(Cc2cccnc2)C1=O (stereo unspecified) |  | 0.816
C=C(C)CN(CC)C(=O)c1cc(Cn2c(C)nc3ccccc32)[nH]n1 | 0.924 | 
CCNC(=O)c1cn(CC(C)C)cc(C(=O)NCc2ccccc2OC)c1=O |  | 0.773
CC(=O)c1cccc(OCc2cc(C(=O)NCC3CCCCO3)n[nH]2)c1 (stereo unspecified) | 0.989 | 
CCOC(=O)C1(CCOc2ccccc2)CCCN(C(=O)c2scc3c2OCCO3)C1 (stereo unspecified) | 0.021 | 
O=C1CCN(C(=O)CC2c3ccccc3CCc3ccccc32)CCN1 | 0.962 | 

Compound | bacterial growth OD600 (polymyxin B 1 µg/mL) | bacterial growth OD600 (polymyxin B 0.75 µg/mL)
CN(Cc1cnn(C)c1)CC1CCN(CCc2ccc(Cl)cc2)CC1 | 0.818 | 
COc1cccc(CCC2CCCN(C3CCN(C(C)=O)CC3)C2)c1 (stereo unspecified) |  | 0.875
CN1CCCC(CN(CCc2ccccc2)C(=O)CCc2cccnc2)C1 (stereo unspecified) | 0.842 | 
COc1ccc(F)c(CC2(CCC(=O)N3CCN(Cc4ccccc4OC)CC3)CCC(=O)N2)c1 (stereo unspecified) |  | 0.833
COc1cccc(CC(C2CCN(C(=O)c3ccccc3F)CC2)N(C)C(=O)c2cccnc2)c1 (stereo unspecified) |  | 0.925
COc1ccccc1C(C)N(C)Cc1nc(-c2ccc(C(F)(F)F)cc2)no1 (stereo unspecified) | 0.499 | 
CN1CCC(NC2CCN(c3ccc(C(=O)N4CCc5ccccc5C4)cc3)CC2)CC1 |  | 0.779
COCc1c(C(=O)NCc2ccc(C)cc2)cnn1-c1nccc(-c2cc(C)sc2C)n1 |  | 0.001
CCO[C@H]1[C@H](NC(=O)c2ccco2)c2ccccc2C12CCN(C(=O)c1cscn1)CC2 |  | 0.713
CC(C)CNc1ccc(C(=O)NCc2noc(C(C)C)n2)cn1 |  | 0.788
Cc1ncc2c(c1CNC(=O)/C=C/c1cccs1)CCN(C(=O)CCC(=O)c1ccc(F)cc1)C2 |  | 0.83
O=C(Nc1cnn(-c2ccc(C(=O)N3CCOc4ccccc4C3)cc2)c1)c1cccnc1 |  | 0.37
Cc1ccccc1Oc1ncccc1CNCc1c[nH]cn1 | 1.11 | 
COc1ccc(CN2CCN(Cc3ccc(C)o3)CC2CCO)cc1C (stereo unspecified) | 1.05 | 
CN(C)c1ccccc1C(=O)NCC1CCC2(CCN(Cc3ccccc3)CC2)O1 (stereo unspecified) |  | 0.85

Grouped by structure: those above with a furan ring, fused or not.
Compound | bacterial growth OD600 (polymyxin B 1 µg/mL) | bacterial growth OD600 (polymyxin B 0.75 µg/mL)
CCO[C@H]1[C@H](NC(=O)c2ccco2)c2ccccc2C12CCN(C(=O)c1cscn1)CC2 |  | 0.713
COc1ccc(CN2CCN(Cc3ccc(C)o3)CC2CCO)cc1C (stereo unspecified) | 1.05 | 
